Source: patent US7528109 (GEORGETOWN UNIVERSITY, dated 2009)
No constants are given. Whether binding was seen depends on the method and setting. Some results given as binding are weak or reduced against the parent protein; the word gives no strength. Values belong to the molecule of their own block, whether it stands above or below them.

The chains behind the UniProt entries cited, without tags or fusion partners. Where a name states a change or a piece, a line headed by the entry shows the natural chain unless it says otherwise.
UniProt Q9UM73: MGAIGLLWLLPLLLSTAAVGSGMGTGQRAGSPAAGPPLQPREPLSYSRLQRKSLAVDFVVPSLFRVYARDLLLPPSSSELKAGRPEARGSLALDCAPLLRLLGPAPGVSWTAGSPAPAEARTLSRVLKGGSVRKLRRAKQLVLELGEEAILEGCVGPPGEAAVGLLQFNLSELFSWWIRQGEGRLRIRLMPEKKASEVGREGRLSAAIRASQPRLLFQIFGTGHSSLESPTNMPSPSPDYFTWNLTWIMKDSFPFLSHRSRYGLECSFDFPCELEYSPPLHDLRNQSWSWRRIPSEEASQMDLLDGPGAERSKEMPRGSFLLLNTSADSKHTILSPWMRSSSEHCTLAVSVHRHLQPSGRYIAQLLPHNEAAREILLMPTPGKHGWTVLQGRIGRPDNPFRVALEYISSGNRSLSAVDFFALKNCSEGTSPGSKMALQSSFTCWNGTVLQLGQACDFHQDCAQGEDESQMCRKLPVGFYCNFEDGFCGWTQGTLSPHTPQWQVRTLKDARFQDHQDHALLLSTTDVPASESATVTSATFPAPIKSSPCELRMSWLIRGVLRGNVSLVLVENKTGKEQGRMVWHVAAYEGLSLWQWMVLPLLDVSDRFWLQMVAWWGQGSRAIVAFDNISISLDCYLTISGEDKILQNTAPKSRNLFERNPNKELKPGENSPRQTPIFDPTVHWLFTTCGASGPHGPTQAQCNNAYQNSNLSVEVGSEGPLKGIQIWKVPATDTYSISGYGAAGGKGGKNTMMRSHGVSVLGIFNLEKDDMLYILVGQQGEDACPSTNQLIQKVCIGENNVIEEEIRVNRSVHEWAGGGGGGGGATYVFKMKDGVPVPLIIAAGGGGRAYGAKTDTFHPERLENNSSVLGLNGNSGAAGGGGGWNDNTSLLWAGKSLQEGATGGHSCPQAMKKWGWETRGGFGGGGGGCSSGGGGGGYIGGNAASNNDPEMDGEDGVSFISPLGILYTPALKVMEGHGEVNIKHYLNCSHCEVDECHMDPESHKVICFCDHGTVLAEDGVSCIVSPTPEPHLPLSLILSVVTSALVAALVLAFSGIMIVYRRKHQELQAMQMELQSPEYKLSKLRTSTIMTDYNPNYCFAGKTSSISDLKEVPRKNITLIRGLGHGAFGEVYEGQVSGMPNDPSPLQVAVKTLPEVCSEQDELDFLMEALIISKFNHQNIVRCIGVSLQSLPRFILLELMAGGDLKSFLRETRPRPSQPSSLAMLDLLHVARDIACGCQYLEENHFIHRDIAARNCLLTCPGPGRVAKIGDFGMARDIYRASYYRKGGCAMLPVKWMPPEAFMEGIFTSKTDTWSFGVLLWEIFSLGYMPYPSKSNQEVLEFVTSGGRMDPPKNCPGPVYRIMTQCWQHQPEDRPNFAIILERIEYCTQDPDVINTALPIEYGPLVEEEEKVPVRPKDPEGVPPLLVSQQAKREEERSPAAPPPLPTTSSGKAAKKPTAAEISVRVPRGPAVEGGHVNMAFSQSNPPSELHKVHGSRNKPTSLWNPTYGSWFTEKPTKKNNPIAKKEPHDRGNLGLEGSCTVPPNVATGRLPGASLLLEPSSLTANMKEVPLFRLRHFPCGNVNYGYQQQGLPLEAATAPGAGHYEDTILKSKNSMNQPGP

Columns and labels:
[1] = target: T1, pleiotrophin (PTN), purified from the culture supernatant of cells transfected with the human PTN cDNA (human) (UniProt P21246); assay: competition for binding of radiolabeled PTN to 32D/ALK cells
T1 sequence (looked up): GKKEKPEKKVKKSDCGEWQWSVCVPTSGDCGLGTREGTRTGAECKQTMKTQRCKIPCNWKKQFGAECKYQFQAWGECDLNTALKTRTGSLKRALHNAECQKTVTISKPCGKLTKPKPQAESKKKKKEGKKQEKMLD

[2] = target: ALK (anaplastic lymphoma kinase) receptor, full length, expressed on cells (human) (UniProt Q9UM73); assay: saturation binding of 35S-labeled PTN to 32D/ALK cells
[3] = target: extracellular domain (ECD) of ALK (PTNR) produced as an Fc fusion protein in CHO cells (human) (UniProt Q9UM73); assay: cell-free dot assay on nitrocellulose, immunodetection, both orientations

- binding [1]: binds
Molecule: extracellular domain (ECD) of ALK (PTNR) produced as an Fc fusion protein in CHO cells (from UniProt Q9UM73 19-1038)

- binding [2]: binds
- binding [3]: binds
B1: pleiotrophin (PTN), purified from the culture supernatant of cells transfected with the human PTN cDNA (ligand, UniProt P21246 33-168, looked up)
chain: T1 sequence (looked up)
notes: also called PTN ligand; radiolabeled PTN
